The subject of this experiment is B6C3F1 mice, Lewis lung carcinoma iv, survival T/C. As to the kind of experiment: NCI In Vivo Anticancer Drug Screen. Data for tumor model Lewis Lung Carcinoma (intravenous) in B6C3F1 mice. The settings on record: T/C endpoint: median survival time, schedule: Q01DX009 (ip), higher T/C = longer survival. In short, it runs like this:
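Mice carrying transplanted tumors received test compound; survival in the treated group was divided by that of the vehicle-treated control group to give the T/C value.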

The mark [1] stands for this setting: dose: 200.0 mg/kg/injection, vehicle: saline with Tween-80.
Where [2] appears, read: dose: 400.0 mg/kg/injection, vehicle: saline with Tween-80.
Setting [3] is: dose: 25.0 mg/kg/injection, vehicle: Klucel (hydroxypropylcellulose) (HPC).
The mark [4] stands for this setting: dose: 100.0 mg/kg/injection, vehicle: Klucel (hydroxypropylcellulose) (HPC).
The mark [5] stands for this setting: dose: 400.0 mg/kg/injection, vehicle: DMSO.
Setting [6] is: dose: 2.0 mg/kg/injection, vehicle: saline.
Where [7] appears, read: dose: 4.0 mg/kg/injection, vehicle: saline.
The mark [8] stands for this setting: dose: 400.0 mg/kg/injection, vehicle: Klucel (hydroxypropylcellulose) (HPC).
Where [9] appears, read: dose: 400.0 mg/kg/injection, vehicle: saline.
[10] abbreviates: dose: 100.0 mg/kg/injection, vehicle: saline with Tween-80.
Setting [11] is: dose: 50.0 mg/kg/injection, vehicle: saline.
Where [12] appears, read: dose: 8.0 mg/kg/injection, vehicle: saline.

The list does not hold the whole screen: it gathers tests that were run many times, whatever their T/C, doses with no T/C, and many T/C values between a quarter and a half above the control. Further doses and runs are listed elsewhere. T/C: endpoint of the treated group in % of that of the vehicle group. Some entries give survivors of the animals treated and no T/C: the source holds a T/C of zero for them, seemingly a mark for toxic or unscored doses. Some survivor counts are full or nearly so, which does not show that the dose was tolerated: the source hardly ever lists a survival T/C far under the control, and the zero likely stands for such cases as well. Survivors were counted at the toxicity check, usually on the fifth day, unless a day is given; later deaths do not show. Schedule codes are those of the source, read here as Q, the interval in days (D) or hours (H), X, the number of doses. Some entries hold several experiments; the results are listed from low to high. For survival time, the PubChem record calls one and a half times the control and up active, and a quarter to a half above the control has no call in these data; cut-offs in other NCI protocols can differ. Some T/C values are followed by the survivors on the day toxicity was checked, most often the fifth; without a count, all were alive then.

For `c1cc(OCC2CO2)ccc1OCC1CO1` (centres undefined), the survivor count under setting [1] is given as 4 of 10 and the survivor count under setting [2] is recorded as 3 of 10.
As for `CCCC(=O)OCc1cc(=O)n(C)c2c3c4c(cc12)c(C)cc(=O)n4CO3`, the T/C under setting [3] is 127 % of control. Moreover, under setting [4], the survivor count was 9 of 10.
On to `O=C(O)[C@H](Cc1ccccc1)N1C(=O)c2ccccc2C1=O`, for which the survivor count is, setting by setting: (dose: 50.0 mg/kg/injection, vehicle: DMSO) 5 of 8; (dose: 100.0 mg/kg/injection, vehicle: DMSO) 5 of 10; (dose: 200.0 mg/kg/injection, vehicle: DMSO) 1 of 10; under setting [5], 0 of 10; (dose: 800.0 mg/kg/injection, vehicle: DMSO) 0 of 10.
As to `CC(=O)O[C@@H]1CO[C@H]2O[C@H]3[C@@H](C(C=O)=C[C@H](O)[C@@H]4C5=C(C(C)C)CC[C@]5(C)CC[C@@]34C)[C@@]2(O)C1=O`, the survivor count is 7 of 10 (dose: 6.0 mg/kg/injection, vehicle: Klucel (hydroxypropylcellulose) (HPC)); 0 of 10 (dose: 12.0 mg/kg/injection, vehicle: Klucel (hydroxypropylcellulose) (HPC)); 0 of 10 (dose: 24.0 mg/kg/injection, vehicle: Klucel (hydroxypropylcellulose) (HPC)).
In the case of `Cc1ccc(N)c(N)c1`, the survivor count is, setting by setting: under setting [2], 6 of 10; (dose: 800.0 mg/kg/injection, vehicle: saline with Tween-80) 0 of 10.
As for `O=C1c2ccccc2C(=O)c2c3c(cc(NCCNCCO)c21)N(CCO)CCN3`, the survivor count under setting [5] was 8 of 10.
On to `Oc1ccc(CCl)c2cccnc12`, for which the survivor count (dose: 200.0 mg/kg/injection, vehicle: saline) is 5 of 10.
Turning to `NC(=O)/C=C/C(=O)c1c(Cl)cccc1Cl`, for the setting “dose: 25.0 mg/kg/injection, vehicle: saline with Tween-80”, the survivor count is on record as 3 of 10.
Consider `COC(=O)C[C@](O)(CCC(C)(C)O)C(=O)O[C@@H]1C(OC)=C[C@]23CCCN2CCc2cc4c(cc2[C@H]13)OCO4`, for which the T/C under setting [6] is 125 % of control [9 of 10 alive]. The survivor count is 10 of 10 under setting [6]; 0 of 10 and 9 of 10 under setting [7].
For the compound `O=C1N[C@@H]2C(=C[C@H](O)[C@@H](O)[C@H]2O)c2cc3c(c(O)c21)OCO3`, the survivor count (dose: 5.0 mg/kg/injection, vehicle: saline with Tween-80) was 8 of 10 and 9 of 9; the survivor count (dose: 10.0 mg/kg/injection, vehicle: saline with Tween-80) was 0 of 10 and 8 of 10.
Take `COc1cc(C2c3cc4c(cc3C(O)C(CO)C2CO)OCO4)cc(OC)c1OC` (centres undefined): the survivor count was 10 of 10 (dose: 200.0 mg/kg/injection, vehicle: Klucel (hydroxypropylcellulose) (HPC)) and 1 of 10 under setting [8].
Consider `COC(=O)c1ccoc1`, for which, under setting [9], the survivor count is recorded as 5 of 10.
As to `CC(=O)Oc1c(C)[nH]ccc1=O`, where the note is “dose: 800.0 mg/kg/injection, vehicle: saline”, the T/C is 133 % of control [9 of 10 alive].
With `O=C1N[C@H]2[C@H](CS[C@H]2CCCCC(=O)N(CCP(c2ccccc2)c2ccccc2)CCP(c2ccccc2)c2ccccc2)N1`, the survivor count is, setting by setting: under setting [4], 10 of 10; under setting [8], 10 of 10.
Turning to `CNc1cccnc1/C=N/NC(N)=S`, the survivor count was 10 of 10 under setting [10], 10 of 10 under setting [1] and 3 of 10 under setting [2].
In the case of `S=c1nc[nH]c2nc[nH]c12`, the survivor count by setting is: (dose: 60.0 mg/kg/injection, vehicle: Klucel (hydroxypropylcellulose) (HPC)) 10 of 10; (dose: 120.0 mg/kg/injection, vehicle: Klucel (hydroxypropylcellulose) (HPC)) 8 of 10; (dose: 240.0 mg/kg/injection, vehicle: Klucel (hydroxypropylcellulose) (HPC)) 7 of 10.
In the case of `CC1c2ccccc2CC(CCN(C)C)c2ccccc21` (centres undefined), under setting [10], the survivor count is 0 of 10.
For `Cc1oc2c(C)c3oc(=O)cc(C)c3cc2c1CCl`, the survivor count (dose: 50.0 mg/kg/injection, vehicle: saline with Tween-80) is reported as 10 of 10; the survivor count under setting [10] is 9 of 10; the survivor count under setting [1] is listed as 8 of 10; the survivor count under setting [2] is 0 of 10.
For the compound `COC(=O)[C@@H]1c2cc3c(c(O)c2[C@@H](OC)C[C@@]1(C)O)C(=O)c1c(O)cc2c(c1C3=O)OC1O[C@@]2(C)[C@H](O)[C@@H](N(C)C)[C@@H]1O`, the survivor count is 10 of 10 (dose: 25.0 mg/kg/injection, vehicle: saline) and 7 of 10 under setting [11].
Consider `COc1ccc(OC)c(Cc2cnc3nc(N)nc(N)c3c2C)c1`, for which the survivor count (dose: 100.0 mg/kg/injection, vehicle: water) is listed as 5 of 10.
With `NNC(=S)N/N=C/c1ccccn1`, the survivor count under setting [11] is recorded as 0 of 10 and the survivor count (dose: 50.0 mg/kg/injection, vehicle: suspension in saline) is recorded as 7 of 10.
In the case of `[Cl][Pt+2][Cl].[NH-]C1CCC1.[NH2-]`, the T/C by setting is: (dose: 1.5 mg/kg/injection, vehicle: saline) 126 % of control; (dose: 12.0 mg/kg/injection, vehicle: saline) 128 % of control. Moreover, the survivor count (dose: 24.0 mg/kg/injection, vehicle: saline) is on record as 8 of 9.
With `Cn1cnc([N+](=O)[O-])c1Sc1nc(N)nc2c1ncn2C1OC(CO)C(O)C1O` (centres undefined), the survivor count (dose: 12.5 mg/kg/injection, vehicle: suspension in saline) is reported as 10 of 10.
In the case of `CNC(=O)O/N=C(\CN=[N+]=[N-])C(C)(C)C`, the survivor count under setting [6] was 0 of 10.
Consider `CCCCCCCC(=O)OCC(=O)[C@]1(O)Cc2c(O)c3c(c(O)c2[C@@H](OC2CC(N)C(O)C(C)O2)C1)C(=O)c1c(OC)cccc1C3=O` (some centres undefined), for which the survivor count is recorded as 10 of 10 under setting [7]; 10 of 10 (dose: 4.0 mg/kg/injection, vehicle: suspension in saline); 10 of 10 under setting [12]; 10 of 10 (dose: 8.0 mg/kg/injection, vehicle: suspension in saline).
Regarding `O=[N+]([O-])c1ccc(Sc2ccncn2)c([N+](=O)[O-])c1`, the survivor count under setting [1] is 1 of 10.
As for `C=C(C(=O)O)C(N)C(=O)O` (centres undefined), under setting [9], the survivor count was 5 of 10.
Consider `CCCCOCN(COCCCC)C(C)Cc1ccccc1` (centres undefined), for which the survivor count under setting [2] is given as 3 of 10.
For the compound `CC[C@@]1(O)C(=O)OCc2c1cc1n(c2=O)Cc2cc3cc(O)ccc3nc2-1`, the survivor count (dose: 6.0 mg/kg/injection, vehicle: saline) is listed as 10 of 10.
In the case of `CN(C)/N=N/c1nc[nH]c1C(N)=O`, the survivor count is reported as 9 of 10 under setting [3]; 10 of 10 (dose: 50.0 mg/kg/injection, vehicle: Klucel (hydroxypropylcellulose) (HPC)); 7 of 10 under setting [4].
Take `CSC(SC)=C1C(=O)NC(=O)NC1=O`: under setting [11], the survivor count was 8 of 10.
Consider `Cc1c(N)nc(C(CC(N)=O)NCC(N)C(N)=O)nc1C(=O)NC(C(=O)NC(C)C(O)CC(=O)NC(C(=O)NC(OC1OC(C)C(N)C(O)C1O)C(O)c1nc(-c2nc(C(=O)NCCCC(N)CC(=O)NCCCNCCCCN)cs2)cs1)C(C)O)C(OC1OC(CO)C(O)C(O)C1OC1OC(CO)C(O)C(OC(N)=O)C1O)c1cnc[nH]1` (centres undefined), for which, under setting [7], the T/C was 145 % of control. For the same compound, the survivor count runs as follows: under setting [12], 10 of 10; (dose: 16.0 mg/kg/injection, vehicle: saline) 9 of 10.

Source of the values: PubChem BioAssay AID276 (DTP/NCI, 2004).
